No constants are given. Whether binding was seen depends on the method and setting. Sequences can lack the tags named with a protein.
Assays:
[1] = target: Gloeobacter rhodopsin (GR), wild type, C-terminal His-tagged (Gloeobacter violaceus) (UniProt Q7NP59); assay: condition: only in the lower-density nanodisc band NDL; sucrose density gradient centrifugation + absorption spectra (MSP amount per GR from A280); lower-density nanodisc band NDL, reconstituted at pH 5.5, separated on a 10-40% sucrose gradient; spectra in 6-mix buffer, pH 7, 0.3 M NaCl, set to the same peak at about 540 nm; both purified
[2] = target: Gloeobacter rhodopsin (GR), wild type, C-terminal His-tagged (Gloeobacter violaceus) (UniProt Q7NP59); assay: visible circular dichroism (exciton coupling of retinals); DDM-solubilized GR at pH 4; both purified
[3] = target: Gloeobacter rhodopsin (GR), wild type, C-terminal His-tagged (Gloeobacter violaceus) (UniProt Q7NP59); assay: condition: only in the lower-density nanodisc band NDL; visible circular dichroism (exciton coupling of retinals); GR in the lower-density nanodisc band NDL (MSP1E3D1, POPC); 6-mix buffer, pH 7, 0.3 M NaCl, 25 °C; both purified
[4] = target: Gloeobacter rhodopsin H87M mutant, C-terminal His-tagged (Gloeobacter violaceus) (UniProt Q7NP59); assay: sucrose density gradient centrifugation; H87M GR in MSP1E3D1/POPC nanodiscs reconstituted at pH 7 (GR:MSP:POPC 1:2:200); 10-40% sucrose, 40,000 rpm, 16 h, 4 °C; band position compared with NDL; both purified

binding [1] | binding [3] | binding [4] | Binder | binding [2]
no binding | no binding | – | Gloeobacter rhodopsin (GR), wild type, C-terminal His-tagged (natural protein, Gloeobacter violaceus, UniProt Q7NP59 1-298, looked up, retinal bound by a protonated Schiff base linkage (residue not given), Gloeobacter rhodopsin, H+ pump from the cyanobacterium Gloeobacter violaceus; The same protein was trapped as a trimer (nanodisc band NDH) and as a monomer (nanodisc band NDL) after reconstitution at pH 5.5; also called wild-type GR; trimeric GR (in NDH); source: E. coli BL21(DE3), solubilized with DDM, purified (Ni-NTA agarose); reconstituted into MSP1E3D1/POPC nanodiscs or kept in DDM) MLMTVFSSAPELALLGSTFAQVDPSNLSVSDSLTYGQFNLVYNAFSFAIAAMFASALFFFSAQALVGQRYRLALLVSAIVVSIAGYHYFRIFNSWDAAYVLENGVYSLTSEKFNDAYRYVDWLLTVPLLLVETVAVLTLPAKEARPLLIKLTVASVLMIATGYPGEISDDITTRIIWGTVSTIPFAYILYVLWVELSRSLVRQPAAVQTLVRNMRWLLLLSWGVYPIAYLLPMLGVSGTSAAVGVQVGYTIADVLAKPVFGLLVFAIALVKTKADQESSEPHAAIGAAANKSGGSLIS | no binding (condition: DDM-solubilized at pH 4)
– | – | no binding | Gloeobacter rhodopsin H87M mutant, C-terminal His-tagged (protein, UniProt Q7NP59 1-298, retinal bound by a Schiff base linkage (residue not given)) MLMTVFSSAPELALLGSTFAQVDPSNLSVSDSLTYGQFNLVYNAFSFAIAAMFASALFFFSAQALVGQRYRLALLVSAIVVSIAGYMYFRIFNSWDAAYVLENGVYSLTSEKFNDAYRYVDWLLTVPLLLVETVAVLTLPAKEARPLLIKLTVASVLMIATGYPGEISDDITTRIIWGTVSTIPFAYILYVLWVELSRSLVRQPAAVQTLVRNMRWLLLLSWGVYPIAYLLPMLGVSGTSAAVGVQVGYTIADVLAKPVFGLLVFAIALVKTKADQESSEPHAAIGAAANKSGGSLIS | –
